Test system: activated sludge
Test: Fluoride determination by ion chromatography during the Zahn-Wellens test

O=S(=O)(O)CCCCCCCCCCOC(F)(F)F [Example 5, Sodium 10-trifluoromethoxydecane-1-sulfonate]
mg/l of free fluoride (duration of the measurement 0 d): 1.1 mg/L | mg/l of free fluoride (duration of the measurement 0.125 d): 1.6 mg/L | mg/l of free fluoride (duration of the measurement 1 d): 2.0 mg/L | mg/l of free fluoride (duration of the measurement 2 d): 2.6 mg/L | mg/l of free fluoride (duration of the measurement 5 d): 1.1 mg/L | mg/l of free fluoride (duration of the measurement 8 d): 9.6 mg/L | mg/l of free fluoride (duration of the measurement 9 d): 11.5 mg/L | mg/l of free fluoride (duration of the measurement 12 d): 20.3 mg/L | mg/l of free fluoride (duration of the measurement 15 d): 24.5 mg/L | mg/l of free fluoride (duration of the measurement 19 d): 28.1 mg/L | mg/l of free fluoride (duration of the measurement 22 d): 30.9 mg/L | mg/l of free fluoride (duration of the measurement 26 d): 35.7 mg/L | mg/l of free fluoride (duration of the measurement 28 d): 43.1 mg/L

From US20080149878A1, “Fluorosurfactants” (priority 2005, published 2008)
